# Assay results as given in the supplement of paper PMC11438910.
# Some of the results follow. Most of these values are background signal.
# B1: 4-99.2 (protein)
# chain 1: QVQLQESGPGLVKPSETLSLTCAVSGYSIRSAYEWGWIRQPPGKGLEYIGYISGESGNTYYSPSLKSRVTISRDTSKNQFSLRLSSVTAADSAVYYCARRGQLIGFDFWGQGVLVTVSS
# chain 2: QAAPTQPPSVSGSPGQSVTISCTGTSSDIGYYNAVSWYQHLPGKAPKLMIYEVSKRPSGVSDRFSGSKSGNTASLTISGLQAEDEADYYCSSYAGSNTYIFGAGTRLTVL
# Experiments:
# Test in all cases: fluorescence intensity of antibody binding to polysaccharide-coupled beads; higher = stronger binding
# [1] = biological target: pneumococcal polysaccharide Pn23F
# [2] = biological target: pneumococcal polysaccharide Pn24A
# [3] = biological target: pneumococcal polysaccharide Pn24B
# [4] = biological target: pneumococcal polysaccharide Pn24F
# [5] = biological target: pneumococcal polysaccharide Pn25A
# [6] = biological target: pneumococcal polysaccharide Pn25F
# [7] = biological target: pneumococcal polysaccharide Pn27
# [8] = biological target: pneumococcal polysaccharide Pn28A
# [9] = biological target: pneumococcal polysaccharide Pn28F
# [10] = biological target: pneumococcal polysaccharide Pn29
# [11] = biological target: pneumococcal polysaccharide Pn3
# [12] = biological target: pneumococcal polysaccharide Pn31
# [13] = biological target: pneumococcal polysaccharide Pn32A
# [14] = biological target: pneumococcal polysaccharide Pn32F
# [15] = biological target: pneumococcal polysaccharide Pn33A
# [16] = biological target: pneumococcal polysaccharide Pn33B
# [17] = biological target: pneumococcal polysaccharide Pn33C
# [18] = biological target: pneumococcal polysaccharide Pn33D
# [19] = biological target: pneumococcal polysaccharide Pn33F
# [20] = biological target: pneumococcal polysaccharide Pn34
# [21] = biological target: pneumococcal polysaccharide Pn35A
# [22] = biological target: pneumococcal polysaccharide Pn35B
# [23] = biological target: pneumococcal polysaccharide Pn35C
# [24] = antibody concentration 2.8593 ng/mL
# [25] = antibody concentration 15.2894 ng/mL
# [26] = antibody concentration 81.7561 ng/mL
# [27] = antibody concentration 437.17 ng/mL
# [28] = antibody concentration 2337.65 ng/mL
# [29] = antibody concentration 12500 ng/mL
# [30] = antibody concentration 0.1 ng/mL
# [31] = antibody concentration 0.534724 ng/mL
binder,measurement,setting,value
B1,fluorescence intensity,[1]; [24],17.5 MFI
same,fluorescence intensity,[1]; [25],17 MFI
same,fluorescence intensity,[1]; [26],16.5 MFI
same,fluorescence intensity,[1]; [27],19.5 MFI
same,fluorescence intensity,[1]; [28],18 MFI
same,fluorescence intensity,[1]; [29],26.5 MFI
same,fluorescence intensity,[2]; [30],15 MFI
same,fluorescence intensity,[2]; [31],16.8 MFI
same,fluorescence intensity,[2]; [24],15 MFI
same,fluorescence intensity,[2]; [25],14.8 MFI
same,fluorescence intensity,[2]; [26],13.5 MFI
same,fluorescence intensity,[2]; [27],15.2 MFI
same,fluorescence intensity,[2]; [28],17 MFI
same,fluorescence intensity,[2]; [29],20.2 MFI
same,fluorescence intensity,[3]; [30],16.5 MFI
same,fluorescence intensity,[3]; [31],18.2 MFI
same,fluorescence intensity,[3]; [24],17 MFI
same,fluorescence intensity,[3]; [25],18.5 MFI
same,fluorescence intensity,[3]; [26],17.5 MFI
same,fluorescence intensity,[3]; [27],18.5 MFI
same,fluorescence intensity,[3]; [28],20 MFI
same,fluorescence intensity,[3]; [29],31.5 MFI
same,fluorescence intensity,[4]; [30],16 MFI
same,fluorescence intensity,[4]; [31],19 MFI
same,fluorescence intensity,[4]; [24],15.5 MFI
same,fluorescence intensity,[4]; [25],16 MFI
same,fluorescence intensity,[4]; [26],17 MFI
same,fluorescence intensity,[4]; [27],19.2 MFI
same,fluorescence intensity,[4]; [28],19.5 MFI
same,fluorescence intensity,[4]; [29],32.2 MFI
same,fluorescence intensity,[5]; [30],22.8 MFI
same,fluorescence intensity,[5]; [31],21.5 MFI
same,fluorescence intensity,[5]; [24],24 MFI
same,fluorescence intensity,[5]; [25],22 MFI
same,fluorescence intensity,[5]; [26],22 MFI
same,fluorescence intensity,[5]; [27],24.5 MFI
same,fluorescence intensity,[5]; [28],24.5 MFI
same,fluorescence intensity,[5]; [29],31 MFI
same,fluorescence intensity,[6]; [30],29 MFI
same,fluorescence intensity,[6]; [31],29.5 MFI
same,fluorescence intensity,[6]; [24],30.5 MFI
same,fluorescence intensity,[6]; [25],30 MFI
same,fluorescence intensity,[6]; [26],28 MFI
same,fluorescence intensity,[6]; [27],28.5 MFI
same,fluorescence intensity,[6]; [28],29.5 MFI
same,fluorescence intensity,[6]; [29],37 MFI
same,fluorescence intensity,[7]; [30],16 MFI
same,fluorescence intensity,[7]; [31],15.5 MFI
same,fluorescence intensity,[7]; [24],17 MFI
same,fluorescence intensity,[7]; [25],16.5 MFI
same,fluorescence intensity,[7]; [26],15.5 MFI
same,fluorescence intensity,[7]; [27],17.5 MFI
same,fluorescence intensity,[7]; [28],20.5 MFI
same,fluorescence intensity,[7]; [29],54.5 MFI
same,fluorescence intensity,[8]; [30],24.5 MFI
same,fluorescence intensity,[8]; [31],24.5 MFI
same,fluorescence intensity,[8]; [24],25 MFI
same,fluorescence intensity,[8]; [25],27 MFI
same,fluorescence intensity,[8]; [26],25.2 MFI
same,fluorescence intensity,[8]; [27],26.5 MFI
same,fluorescence intensity,[8]; [28],26.2 MFI
same,fluorescence intensity,[8]; [29],31.5 MFI
same,fluorescence intensity,[9]; [30],28.5 MFI
same,fluorescence intensity,[9]; [31],28 MFI
same,fluorescence intensity,[9]; [24],29.5 MFI
same,fluorescence intensity,[9]; [25],29 MFI
same,fluorescence intensity,[9]; [26],28 MFI
same,fluorescence intensity,[9]; [27],28 MFI
same,fluorescence intensity,[9]; [28],30 MFI
same,fluorescence intensity,[9]; [29],41.5 MFI
same,fluorescence intensity,[10]; [30],14.5 MFI
same,fluorescence intensity,[10]; [31],15.5 MFI
same,fluorescence intensity,[10]; [24],16 MFI
same,fluorescence intensity,[10]; [25],15.2 MFI
same,fluorescence intensity,[10]; [26],16.5 MFI
same,fluorescence intensity,[10]; [27],14 MFI
same,fluorescence intensity,[10]; [28],20 MFI
same,fluorescence intensity,[10]; [29],36.8 MFI
same,fluorescence intensity,[11]; [30],18.8 MFI
same,fluorescence intensity,[11]; [31],35.5 MFI
same,fluorescence intensity,[11]; [24],79.8 MFI
same,fluorescence intensity,[11]; [25],246 MFI
same,fluorescence intensity,[11]; [26],915 MFI
same,fluorescence intensity,[11]; [27],3140 MFI
same,fluorescence intensity,[11]; [28],17200 MFI
same,fluorescence intensity,[11]; [29],8310 MFI
same,fluorescence intensity,[12]; [30],13 MFI
same,fluorescence intensity,[12]; [31],13.5 MFI
same,fluorescence intensity,[12]; [24],13.8 MFI
same,fluorescence intensity,[12]; [25],13.5 MFI
same,fluorescence intensity,[12]; [26],13 MFI
same,fluorescence intensity,[12]; [27],13.5 MFI
same,fluorescence intensity,[12]; [28],16 MFI
same,fluorescence intensity,[12]; [29],35.2 MFI
same,fluorescence intensity,[13]; [30],16.5 MFI
same,fluorescence intensity,[13]; [31],17.5 MFI
same,fluorescence intensity,[13]; [24],17.5 MFI
same,fluorescence intensity,[13]; [25],17 MFI
same,fluorescence intensity,[13]; [26],15.5 MFI
same,fluorescence intensity,[13]; [27],18.8 MFI
same,fluorescence intensity,[13]; [28],19.2 MFI
same,fluorescence intensity,[13]; [29],31 MFI
same,fluorescence intensity,[14]; [30],24.5 MFI
same,fluorescence intensity,[14]; [31],25.5 MFI
same,fluorescence intensity,[14]; [24],26 MFI
same,fluorescence intensity,[14]; [25],25 MFI
same,fluorescence intensity,[14]; [26],25.5 MFI
same,fluorescence intensity,[14]; [27],26.5 MFI
same,fluorescence intensity,[14]; [28],31.5 MFI
same,fluorescence intensity,[14]; [29],46 MFI
same,fluorescence intensity,[15]; [30],17 MFI
same,fluorescence intensity,[15]; [31],17.5 MFI
same,fluorescence intensity,[15]; [24],17.5 MFI
same,fluorescence intensity,[15]; [25],18 MFI
same,fluorescence intensity,[15]; [26],19.5 MFI
same,fluorescence intensity,[15]; [27],20 MFI
same,fluorescence intensity,[15]; [28],27.5 MFI
same,fluorescence intensity,[15]; [29],120 MFI
same,fluorescence intensity,[16]; [30],17.5 MFI
same,fluorescence intensity,[16]; [31],16.5 MFI
same,fluorescence intensity,[16]; [24],16.5 MFI
same,fluorescence intensity,[16]; [25],18 MFI
same,fluorescence intensity,[16]; [26],19 MFI
same,fluorescence intensity,[16]; [27],17 MFI
same,fluorescence intensity,[16]; [28],18 MFI
same,fluorescence intensity,[16]; [29],20.5 MFI
same,fluorescence intensity,[17]; [30],18.2 MFI
same,fluorescence intensity,[17]; [31],17.2 MFI
same,fluorescence intensity,[17]; [24],21 MFI
same,fluorescence intensity,[17]; [25],20 MFI
same,fluorescence intensity,[17]; [26],20.2 MFI
same,fluorescence intensity,[17]; [27],20 MFI
same,fluorescence intensity,[17]; [28],20.5 MFI
same,fluorescence intensity,[17]; [29],30 MFI
same,fluorescence intensity,[18]; [30],16 MFI
same,fluorescence intensity,[18]; [31],15.2 MFI
same,fluorescence intensity,[18]; [24],15.8 MFI
same,fluorescence intensity,[18]; [25],15.5 MFI
same,fluorescence intensity,[18]; [26],15 MFI
same,fluorescence intensity,[18]; [27],15.5 MFI
same,fluorescence intensity,[18]; [28],16 MFI
same,fluorescence intensity,[18]; [29],20 MFI
same,fluorescence intensity,[19]; [30],12.5 MFI
same,fluorescence intensity,[19]; [31],11.8 MFI
same,fluorescence intensity,[19]; [24],12 MFI
same,fluorescence intensity,[19]; [25],13 MFI
same,fluorescence intensity,[19]; [26],12.5 MFI
same,fluorescence intensity,[19]; [27],14 MFI
same,fluorescence intensity,[19]; [28],16.5 MFI
same,fluorescence intensity,[19]; [29],51.5 MFI
same,fluorescence intensity,[20]; [30],13.5 MFI
same,fluorescence intensity,[20]; [31],14.2 MFI
same,fluorescence intensity,[20]; [24],13 MFI
same,fluorescence intensity,[20]; [25],12.5 MFI
same,fluorescence intensity,[20]; [26],12 MFI
same,fluorescence intensity,[20]; [27],13.2 MFI
same,fluorescence intensity,[20]; [28],14.5 MFI
same,fluorescence intensity,[20]; [29],17 MFI
same,fluorescence intensity,[21]; [30],16 MFI
same,fluorescence intensity,[21]; [31],16.8 MFI
same,fluorescence intensity,[21]; [24],16.5 MFI
same,fluorescence intensity,[21]; [25],15.8 MFI
same,fluorescence intensity,[21]; [26],17 MFI
same,fluorescence intensity,[21]; [27],18 MFI
same,fluorescence intensity,[21]; [28],19.5 MFI
same,fluorescence intensity,[21]; [29],38 MFI
same,fluorescence intensity,[22]; [30],19 MFI
same,fluorescence intensity,[22]; [31],18 MFI
same,fluorescence intensity,[22]; [24],18 MFI
same,fluorescence intensity,[22]; [25],18 MFI
same,fluorescence intensity,[22]; [26],19 MFI
same,fluorescence intensity,[22]; [27],18 MFI
same,fluorescence intensity,[22]; [28],19.5 MFI
same,fluorescence intensity,[22]; [29],31.5 MFI
same,fluorescence intensity,[23]; [30],19.8 MFI
same,fluorescence intensity,[23]; [31],18.8 MFI
same,fluorescence intensity,[23]; [24],18.8 MFI
same,fluorescence intensity,[23]; [25],18.2 MFI
same,fluorescence intensity,[23]; [26],19 MFI
same,fluorescence intensity,[23]; [27],19 MFI

# An excerpt taken from the entries so far, for reference:
binder,measurement,setting,value
B1,fluorescence intensity,[18]; [28],16 MFI
same,fluorescence intensity,[18]; [29],20 MFI
same,fluorescence intensity,[19]; [30],12.5 MFI
same,fluorescence intensity,[19]; [31],11.8 MFI
same,fluorescence intensity,[19]; [24],12 MFI

# Laid out differently: entries from further up
binder | measurement | setting | value
B1 | fluorescence intensity | [9]; [25] | 29 MFI
same | fluorescence intensity | [23]; [27] | 19 MFI
